# HELM strings list residues between dots; [ac] is acetyl, [am] amide, other brackets name non-standard units.
# Experiment: peptide synthesis
# Details: whole synthesis
substance,measurement,value
PEPTIDE1{M.F.Y.P.D.S.R.C.R.G.P.S.E.T}$$$$V2.0,final HPLC purity,95.15%
